Measured values from paper PMC11732235.
For at least one entry, the source does not settle the construct or the ends of the probe. Results from cells or extracts need not show a direct contact.

Chains of the proteins cited; added tags and fusions are not shown.
UniProt O89090, whole entry: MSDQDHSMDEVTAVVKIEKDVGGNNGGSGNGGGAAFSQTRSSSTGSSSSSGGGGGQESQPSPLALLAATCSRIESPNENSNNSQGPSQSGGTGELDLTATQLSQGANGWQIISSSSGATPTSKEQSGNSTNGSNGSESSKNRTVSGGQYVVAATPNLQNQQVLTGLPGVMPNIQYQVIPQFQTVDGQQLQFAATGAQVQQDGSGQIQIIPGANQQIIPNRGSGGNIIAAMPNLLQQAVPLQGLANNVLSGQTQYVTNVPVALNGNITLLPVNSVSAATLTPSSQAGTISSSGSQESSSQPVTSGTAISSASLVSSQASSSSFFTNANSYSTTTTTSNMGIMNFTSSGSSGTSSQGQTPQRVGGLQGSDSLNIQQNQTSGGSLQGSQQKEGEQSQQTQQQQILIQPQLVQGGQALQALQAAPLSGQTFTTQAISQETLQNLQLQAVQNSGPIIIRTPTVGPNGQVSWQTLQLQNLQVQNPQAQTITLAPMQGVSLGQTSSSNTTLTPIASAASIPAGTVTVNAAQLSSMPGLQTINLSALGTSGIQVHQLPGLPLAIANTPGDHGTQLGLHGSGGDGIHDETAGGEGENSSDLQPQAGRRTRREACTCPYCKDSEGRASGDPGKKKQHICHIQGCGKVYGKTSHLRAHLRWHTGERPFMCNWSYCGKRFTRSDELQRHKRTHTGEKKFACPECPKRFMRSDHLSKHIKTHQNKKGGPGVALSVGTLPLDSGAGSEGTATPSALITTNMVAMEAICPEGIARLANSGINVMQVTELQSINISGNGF

Target: Sp1 (UniProt O89090)
Experiment: EMSA supershift
Settings: nuclear extract of Ang II-treated VSMCs, poly(dI-dC), anti-Sp1 antibody; Beyotime EMSA/Gel-Shift binding buffer (from 5x) with poly(dI-dC), 20 min, room temperature; 6% PAGE in 0.5x TBE; protein in an extract; label: biotin

“GGGGAGGAGAGGGGCGGGTCGGACCT (double strand) [MMP2 promoter Sp1 probe]”: binds.
